Laboratory results published in publication PMC8596017, “Evolutionary mode for the functional preservation of fast-evolving Drosophila telomere capping proteins” (Open Biology, 2021).
Results are given in words; binding and its absence hold for the method and conditions named. For some assays here: In cells and extracts the contact can be indirect. Some binding calls cover weakened binding; strength is not graded here. Tags and fused reporters may be left off the sequences shown.

By UniProt entry, the sequences of proteins in these tests, tags left out.
UniProt Q8KM30: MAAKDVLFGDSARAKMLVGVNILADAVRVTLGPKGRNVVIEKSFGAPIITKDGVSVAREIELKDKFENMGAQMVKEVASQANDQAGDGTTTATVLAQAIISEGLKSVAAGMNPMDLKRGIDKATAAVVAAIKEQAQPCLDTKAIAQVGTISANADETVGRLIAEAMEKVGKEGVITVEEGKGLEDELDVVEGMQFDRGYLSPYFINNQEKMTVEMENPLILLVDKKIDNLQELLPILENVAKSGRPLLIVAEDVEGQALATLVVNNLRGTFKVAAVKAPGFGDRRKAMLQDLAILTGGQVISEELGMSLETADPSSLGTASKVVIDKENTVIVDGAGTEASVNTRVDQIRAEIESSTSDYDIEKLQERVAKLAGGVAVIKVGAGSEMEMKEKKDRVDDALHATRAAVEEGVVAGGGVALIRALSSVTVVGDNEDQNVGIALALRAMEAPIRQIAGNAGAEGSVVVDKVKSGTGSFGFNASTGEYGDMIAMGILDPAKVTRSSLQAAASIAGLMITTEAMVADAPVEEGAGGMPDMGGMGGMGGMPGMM

T1: Verrocchio (Ver), wild type, Flag-tagged (D. melanogaster, UniProt Q9VTZ2 1-214)
T1 construct: Verrocchio (Ver), Terminin subunit of D. melanogaster; also called wild-type Ver; source: Arctic express cells (DE3), co-expressed with Moi-HA from a bicistronic pET vector; cell lysate, heparin-sepharose fractions, anti-FLAG M2 eluate; not shown: Flag, N-terminal, kept
T1 sequence (looked up): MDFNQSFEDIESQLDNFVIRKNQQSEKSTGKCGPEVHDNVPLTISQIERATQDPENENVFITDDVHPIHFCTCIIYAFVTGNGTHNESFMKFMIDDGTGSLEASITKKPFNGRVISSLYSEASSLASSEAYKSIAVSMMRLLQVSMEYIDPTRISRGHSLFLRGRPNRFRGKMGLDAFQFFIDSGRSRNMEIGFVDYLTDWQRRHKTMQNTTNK

B1: Modigliani (Moi), HA-tagged at the C-terminus (natural protein, D. melanogaster, UniProt B7Z0L8 1-178, looked up)
chain: MSLVPEASTSRAPKYCYFFKTLLVEELELETSYHNLHYGQCALIGRLAFKANQYRLENVRVKCLPKKYSLGEGTVSLLILGLTHDKVVENRVSTGRYCIVRGEVVLHNVQHPKGAKLTAGGVYDKINSLSNDPLAQKQYLSALLATYRPAIDLWYIQVIDRAEDLLTRRLEMRSLIEK
notes: DTL/Modigliani (Moi), Terminin subunit of D. melanogaster; also called DTL; source: Arctic express cells (DE3), co-expressed with Ver from a bicistronic pET vector; cell lysate, heparin-sepharose fractions, anti-FLAG M2 eluate; not shown: HA, C-terminal, kept

Tests used:
[1] = target: T1, Verrocchio (Ver), wild type, Flag-tagged; test: co-IP; Flag immune-affinity purification: heparin-sepharose fractions loaded on anti-FLAG M2 affinity matrix, washed with buffer I (25 mM Tris HCl pH 7.5, 100 mM NaCl, 1 mM CaCl2, 1 mM MgCl2) or PBS, eluted with 3× Flag peptide
[2] = target: T1, Verrocchio (Ver), wild type, Flag-tagged; test: co-elution on heparin-sepharose chromatography; cleared bacterial cell extracts of co-expressed Flag-Ver (or mutant) and Moi-HA loaded on a heparin-sepharose column; elution by a 0.1–1 M NaCl gradient in 20 mM Tris pH 7.5, 1 ml fractions; CCB stained PAGE

| Molecule | binding [1] | binding [2] |
| --- | --- | --- |
| Cpn60 chaperone (from UniProt Q8KM30 1-548) | binds |  |
| B1 |  | binds |
